Results from the supplement of paper PMC10849652.
Some of the results follow.

Amino acid sequences for entries named in this document (tags omitted). A change or cut given only in a name is not applied to a line headed by its entry.
UniProt Q92581: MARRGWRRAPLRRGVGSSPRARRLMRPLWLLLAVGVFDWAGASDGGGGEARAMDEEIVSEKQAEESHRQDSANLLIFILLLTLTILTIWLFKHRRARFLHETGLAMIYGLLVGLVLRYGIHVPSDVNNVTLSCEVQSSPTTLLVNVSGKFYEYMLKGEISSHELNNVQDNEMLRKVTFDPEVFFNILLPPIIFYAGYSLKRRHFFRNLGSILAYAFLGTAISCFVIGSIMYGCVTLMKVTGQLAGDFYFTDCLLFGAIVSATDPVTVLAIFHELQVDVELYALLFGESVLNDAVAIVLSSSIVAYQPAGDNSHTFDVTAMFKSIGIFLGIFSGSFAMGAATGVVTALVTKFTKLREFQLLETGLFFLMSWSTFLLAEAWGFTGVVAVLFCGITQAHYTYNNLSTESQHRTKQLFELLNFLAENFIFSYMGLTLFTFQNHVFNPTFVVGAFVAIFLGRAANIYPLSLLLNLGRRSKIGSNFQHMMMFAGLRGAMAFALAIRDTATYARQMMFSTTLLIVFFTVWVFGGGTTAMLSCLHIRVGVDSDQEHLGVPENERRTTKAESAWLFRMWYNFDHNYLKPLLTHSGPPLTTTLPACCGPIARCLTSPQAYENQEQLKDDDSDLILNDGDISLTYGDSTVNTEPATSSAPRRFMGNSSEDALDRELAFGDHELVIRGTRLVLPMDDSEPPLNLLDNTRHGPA
UniProt O75940: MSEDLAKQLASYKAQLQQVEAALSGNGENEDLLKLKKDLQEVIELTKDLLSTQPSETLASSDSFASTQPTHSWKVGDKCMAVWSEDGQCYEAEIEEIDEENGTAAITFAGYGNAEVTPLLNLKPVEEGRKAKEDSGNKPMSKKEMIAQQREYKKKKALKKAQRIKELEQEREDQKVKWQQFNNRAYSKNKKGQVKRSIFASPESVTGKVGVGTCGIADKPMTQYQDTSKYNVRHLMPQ
UniProt Q00796: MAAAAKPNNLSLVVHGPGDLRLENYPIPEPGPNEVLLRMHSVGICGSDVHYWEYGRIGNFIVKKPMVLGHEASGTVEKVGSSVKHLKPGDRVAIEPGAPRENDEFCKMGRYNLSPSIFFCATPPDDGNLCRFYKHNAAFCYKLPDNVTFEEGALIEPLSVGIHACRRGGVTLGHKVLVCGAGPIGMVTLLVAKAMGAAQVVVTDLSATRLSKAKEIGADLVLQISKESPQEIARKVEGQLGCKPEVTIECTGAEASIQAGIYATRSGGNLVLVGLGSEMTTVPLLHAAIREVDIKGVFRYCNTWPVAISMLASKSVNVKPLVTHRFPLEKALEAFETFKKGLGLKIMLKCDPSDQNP

What was measured:
Assay in all cases: log2 fold change, soluble protein after heating vs DMSO (PISA); higher = thermal stabilisation; K562 cells, 10 uM, 30 min; active = over 0.2 and 3.5 SD of the protein, either way, in both replicates (recomputed)
erlotinib = compound: C#Cc1cccc(Nc2ncnc3cc(OCCOC)c(OCCOC)cc23)c1 [erlotinib]
In short: (§1)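 For each measurement, 10 μM compound was applied for 30 min to K562 cells at 2×10^6 cells/mL. Aliquots were heated for 3 min across 48°C-58°C, pooled, and extracted in PBS with 0.5% NP-40 at 4°C; the supernatant after 21,000xg for 90 min was soluble protein. This was quantified by TMTpro 16plex LC-MS/MS with channel sums equalised, and thermal stability was reported relative to control samples from duplicates, on a log2 fold-change scale.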

[1] = compound: C/C(=N\NC(=O)C1=CC(=CC=C1)S(=O)(=O)N2CCOCC2)/C3=C(C=CC(=C3)Cl)O
In short: as §1

[2] = compound: C1=CC(=C(C=C1Cl)C2=NC3=NC=CN=C3C(=N2)NC4=CC=NC=C4)F
In short: as §1

[3] = compound: C1=CC(=CC=C1C2=NC3=C(N2)C=C(C=C3)C(=O)N)OC4=CC=C(C=C4)Cl
In short: as §1

[4] = compound: C1=CC2=C(C=CC(=C2)/C=C\3/C(=O)NC(=NCC4=CC=CS4)S3)N=C1
In short: as §1

[5] = compound: C1=CC2=NC=CN=C2C=C1/C=C/3\C(=O)NC(=O)S3
In short: as §1

[6] = compound: C1=CC=C(C=C1)C2=NC(=C(N2)C3=CC=NC=C3)C4=CC(=C(C=C4)Cl)O
In short: as §1

[7] = compound: C1=CC=C2C(=C1)C3=NNC4=CC=CC(=C43)C2=O
In short: as §1

[8] = compound: C1CCN(C1)C(=O)NC2=CC=CC(=C2)NC3=NC=C(C(=N3)NCCC4=CN=CN4)Br
In short: as §1

[9] = compound: C1CN(CCC1(CC2=CC=C(C=C2)Cl)N)C3=NC=NC4=C3C=CN4
In short: as §1

Measured: log2 fold change

SLC9A6 isoform 2 (UniProt Q92581)
inactive: erlotinib -0.024 | [1] 0.014 | [2] 0.053 | [3] 0.026 | [4] -0.009 | [5] 0.029 | [6] -0.04 | [7] -0.056 | [8] -0.013 | [9] 0.031

SMNDC1 (UniProt O75940)
inactive: erlotinib -0.025 | [1] -0.052 | [2] -0.006 | [3] -0.028 | [4] -0.016 | [5] 0.039 | [6] 0.021 | [7] 0.018 | [8] 0.017 | [9] -0.008

SORD (UniProt Q00796)
inactive: erlotinib -0.035 | [1] -0.003 | [2] 0.043 | [3] 0.055 | [4] 0.018 | [5] -0.013 | [6] -0.021 | [7] -0.04 | [8] 0.003 | [9] 0.049
